Assay results taken from PMC6567058.

How the values were obtained:
[1] = test system: GST-CsTCP14 (Cucumis sativus (cucumber 9930)); experiment: competition with a labelled probe; settings: LightShift Chemiluminescent EMSA kit, 20 uL reactions, 6.5% native polyacrylamide gel, pH and temperature not stated, recombinant protein, protein details: N-terminal GST (pGEX4T-1)
[2] = test system: GST-CsTCP14 (Cucumis sativus (cucumber 9930)); experiment: EMSA; settings: LightShift Chemiluminescent EMSA kit, 20 uL reactions, 6.5% native polyacrylamide gel; pH and temperature not stated; recombinant protein; protein details: N-terminal GST (pGEX4T-1); label: 5'-biotin (unlabeled as cold competitor)

Sequence | binding result ([1]; unlabeled N2 against biotin-N1, shifted band reappeared, label: none (cold competitor)) | binding result ([1]; unlabeled N1 in increasing amounts against biotin-N1, shift attenuated, label: 5'-biotin (unlabeled as cold competitor)) | binding result [2]
TTGTTTTATTTTGGTAAATAAAGTTTTACA (double strand) [CsNBS-LRR mutant probe (GGTCCC to GGTAAA)] | no binding |  | 
TTGTTTTATTTTGGTCCCTAAAGTTTTACA (double strand) [CsNBS-LRR (Csa6M344280.1) promoter probe] |  | binds | binds

The exact form of at least one protein or probe is not confirmed. For part of these data: A negative result means that nothing was seen under these conditions.
